# Data from article PMC9186391.
# By UniProt entry, the sequences of proteins in these tests, tags left out.
# UniProt Q13838: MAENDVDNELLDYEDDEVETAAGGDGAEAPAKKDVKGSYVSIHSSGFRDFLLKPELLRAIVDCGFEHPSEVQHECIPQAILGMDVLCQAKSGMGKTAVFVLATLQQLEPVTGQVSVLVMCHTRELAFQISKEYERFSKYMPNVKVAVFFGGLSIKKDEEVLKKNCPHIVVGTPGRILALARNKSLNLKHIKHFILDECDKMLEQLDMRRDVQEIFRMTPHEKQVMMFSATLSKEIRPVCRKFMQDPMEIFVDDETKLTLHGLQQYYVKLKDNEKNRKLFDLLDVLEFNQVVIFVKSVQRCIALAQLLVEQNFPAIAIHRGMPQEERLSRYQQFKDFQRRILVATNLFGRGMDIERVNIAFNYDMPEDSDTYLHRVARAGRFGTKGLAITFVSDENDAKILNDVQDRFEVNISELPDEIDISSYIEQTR
# These are yes or no findings as the source states them, for the method shown. Binding seen in cells or lysates may run through a third protein. Some binding calls cover weakened binding; strength is not graded here. Sequences can lack the tags named with a protein.
# How the values were obtained:
# [1] = target: T1, FLAG-HA-tagged RBM33 (UniProt Q96EV2); assay: co-IP; coimmunoprecipitation of endogenous proteins with FH-RBM33, detected by Western blot
# T1 sequence: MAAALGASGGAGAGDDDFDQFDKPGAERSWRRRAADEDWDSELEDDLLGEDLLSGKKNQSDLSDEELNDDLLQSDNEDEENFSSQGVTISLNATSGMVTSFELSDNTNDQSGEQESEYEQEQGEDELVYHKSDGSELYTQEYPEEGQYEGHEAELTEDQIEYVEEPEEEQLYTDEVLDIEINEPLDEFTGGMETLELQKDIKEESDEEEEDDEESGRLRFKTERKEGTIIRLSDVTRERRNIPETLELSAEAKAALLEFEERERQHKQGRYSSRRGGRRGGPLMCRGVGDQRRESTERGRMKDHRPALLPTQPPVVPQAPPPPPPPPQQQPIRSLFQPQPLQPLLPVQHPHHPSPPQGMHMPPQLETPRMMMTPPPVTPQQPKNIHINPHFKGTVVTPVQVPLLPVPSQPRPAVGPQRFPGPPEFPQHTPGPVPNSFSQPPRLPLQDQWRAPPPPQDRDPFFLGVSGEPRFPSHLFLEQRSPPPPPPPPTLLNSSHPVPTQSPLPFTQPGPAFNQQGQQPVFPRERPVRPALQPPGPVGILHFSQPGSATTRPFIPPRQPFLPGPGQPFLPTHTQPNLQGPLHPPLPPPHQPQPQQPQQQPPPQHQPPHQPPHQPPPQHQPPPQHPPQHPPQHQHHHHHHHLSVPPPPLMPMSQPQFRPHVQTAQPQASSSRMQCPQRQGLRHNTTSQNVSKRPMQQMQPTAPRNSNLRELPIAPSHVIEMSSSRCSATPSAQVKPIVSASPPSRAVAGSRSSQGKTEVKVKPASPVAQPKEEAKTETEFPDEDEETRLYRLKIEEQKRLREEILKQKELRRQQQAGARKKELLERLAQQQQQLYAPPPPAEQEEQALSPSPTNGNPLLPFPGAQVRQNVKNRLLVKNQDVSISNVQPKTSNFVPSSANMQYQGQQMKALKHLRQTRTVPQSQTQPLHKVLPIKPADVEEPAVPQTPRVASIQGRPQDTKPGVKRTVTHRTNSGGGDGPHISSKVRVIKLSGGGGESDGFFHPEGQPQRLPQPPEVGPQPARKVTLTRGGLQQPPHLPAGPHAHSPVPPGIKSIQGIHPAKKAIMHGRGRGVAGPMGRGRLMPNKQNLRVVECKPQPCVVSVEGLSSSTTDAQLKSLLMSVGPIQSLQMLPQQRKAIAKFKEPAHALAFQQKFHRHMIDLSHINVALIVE
# [2] = target: T2, in vitro translated FLAG-HA-tagged RBM33 (UniProt Q96EV2); assay: co-IP; coimmunoprecipitation of in vitro translated FH-RBM33 and V5-tagged proteins, detected by Western blot; FH-GFP as negative control
# T2 sequence: T1 sequence
binding [1],binding [2],Substance
binds,–,UAP56 (from UniProt Q13838 1-428)
–,binds,"V5-tagged UAP56, in vitro translated (from UniProt Q13838 1-428)"
